Measured values as given in paper PMC11304257.
No constants are given. Whether binding was seen depends on the method and setting. In cells and extracts the contact can be indirect. A yes stands for co-enrichment or nearness to the bait. Other partners may have been found. Tags and fused reporters may be left off the sequences shown.

The chains behind the UniProt entries cited, without tags or fusion partners.
UniProt P12956: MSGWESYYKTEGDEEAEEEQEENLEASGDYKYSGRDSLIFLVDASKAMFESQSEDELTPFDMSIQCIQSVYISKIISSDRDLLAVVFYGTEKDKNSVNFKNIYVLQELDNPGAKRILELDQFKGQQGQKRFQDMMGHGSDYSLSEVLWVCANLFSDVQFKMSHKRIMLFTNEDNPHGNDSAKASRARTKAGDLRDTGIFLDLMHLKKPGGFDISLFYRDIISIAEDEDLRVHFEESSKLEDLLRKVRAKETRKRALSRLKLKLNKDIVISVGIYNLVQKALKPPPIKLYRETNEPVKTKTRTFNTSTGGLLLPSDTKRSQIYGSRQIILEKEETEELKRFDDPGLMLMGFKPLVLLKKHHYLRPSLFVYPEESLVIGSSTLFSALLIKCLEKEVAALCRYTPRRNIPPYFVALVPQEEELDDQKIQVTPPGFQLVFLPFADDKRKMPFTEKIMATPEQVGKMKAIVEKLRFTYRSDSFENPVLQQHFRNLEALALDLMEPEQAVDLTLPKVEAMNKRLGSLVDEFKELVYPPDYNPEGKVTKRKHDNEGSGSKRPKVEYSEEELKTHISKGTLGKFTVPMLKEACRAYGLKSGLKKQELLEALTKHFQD
UniProt P13010: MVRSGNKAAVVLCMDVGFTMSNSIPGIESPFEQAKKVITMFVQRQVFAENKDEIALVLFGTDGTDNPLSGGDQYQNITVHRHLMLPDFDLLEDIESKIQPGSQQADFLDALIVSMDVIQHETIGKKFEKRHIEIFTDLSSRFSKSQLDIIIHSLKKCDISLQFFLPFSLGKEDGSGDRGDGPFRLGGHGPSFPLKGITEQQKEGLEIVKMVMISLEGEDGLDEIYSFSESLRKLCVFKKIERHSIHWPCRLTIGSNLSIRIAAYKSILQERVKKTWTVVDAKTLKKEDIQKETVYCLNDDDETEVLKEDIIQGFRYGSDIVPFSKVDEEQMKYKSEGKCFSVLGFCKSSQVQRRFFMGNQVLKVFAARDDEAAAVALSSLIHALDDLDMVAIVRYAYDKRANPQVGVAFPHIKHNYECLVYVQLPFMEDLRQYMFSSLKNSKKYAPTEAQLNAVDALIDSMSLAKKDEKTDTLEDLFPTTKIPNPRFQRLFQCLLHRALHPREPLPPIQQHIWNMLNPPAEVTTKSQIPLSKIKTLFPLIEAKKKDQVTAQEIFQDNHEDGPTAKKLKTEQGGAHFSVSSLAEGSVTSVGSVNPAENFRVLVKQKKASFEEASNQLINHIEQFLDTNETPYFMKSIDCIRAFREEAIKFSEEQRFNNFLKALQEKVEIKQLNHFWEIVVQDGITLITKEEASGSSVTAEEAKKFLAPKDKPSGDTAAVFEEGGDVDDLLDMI
UniProt P78527: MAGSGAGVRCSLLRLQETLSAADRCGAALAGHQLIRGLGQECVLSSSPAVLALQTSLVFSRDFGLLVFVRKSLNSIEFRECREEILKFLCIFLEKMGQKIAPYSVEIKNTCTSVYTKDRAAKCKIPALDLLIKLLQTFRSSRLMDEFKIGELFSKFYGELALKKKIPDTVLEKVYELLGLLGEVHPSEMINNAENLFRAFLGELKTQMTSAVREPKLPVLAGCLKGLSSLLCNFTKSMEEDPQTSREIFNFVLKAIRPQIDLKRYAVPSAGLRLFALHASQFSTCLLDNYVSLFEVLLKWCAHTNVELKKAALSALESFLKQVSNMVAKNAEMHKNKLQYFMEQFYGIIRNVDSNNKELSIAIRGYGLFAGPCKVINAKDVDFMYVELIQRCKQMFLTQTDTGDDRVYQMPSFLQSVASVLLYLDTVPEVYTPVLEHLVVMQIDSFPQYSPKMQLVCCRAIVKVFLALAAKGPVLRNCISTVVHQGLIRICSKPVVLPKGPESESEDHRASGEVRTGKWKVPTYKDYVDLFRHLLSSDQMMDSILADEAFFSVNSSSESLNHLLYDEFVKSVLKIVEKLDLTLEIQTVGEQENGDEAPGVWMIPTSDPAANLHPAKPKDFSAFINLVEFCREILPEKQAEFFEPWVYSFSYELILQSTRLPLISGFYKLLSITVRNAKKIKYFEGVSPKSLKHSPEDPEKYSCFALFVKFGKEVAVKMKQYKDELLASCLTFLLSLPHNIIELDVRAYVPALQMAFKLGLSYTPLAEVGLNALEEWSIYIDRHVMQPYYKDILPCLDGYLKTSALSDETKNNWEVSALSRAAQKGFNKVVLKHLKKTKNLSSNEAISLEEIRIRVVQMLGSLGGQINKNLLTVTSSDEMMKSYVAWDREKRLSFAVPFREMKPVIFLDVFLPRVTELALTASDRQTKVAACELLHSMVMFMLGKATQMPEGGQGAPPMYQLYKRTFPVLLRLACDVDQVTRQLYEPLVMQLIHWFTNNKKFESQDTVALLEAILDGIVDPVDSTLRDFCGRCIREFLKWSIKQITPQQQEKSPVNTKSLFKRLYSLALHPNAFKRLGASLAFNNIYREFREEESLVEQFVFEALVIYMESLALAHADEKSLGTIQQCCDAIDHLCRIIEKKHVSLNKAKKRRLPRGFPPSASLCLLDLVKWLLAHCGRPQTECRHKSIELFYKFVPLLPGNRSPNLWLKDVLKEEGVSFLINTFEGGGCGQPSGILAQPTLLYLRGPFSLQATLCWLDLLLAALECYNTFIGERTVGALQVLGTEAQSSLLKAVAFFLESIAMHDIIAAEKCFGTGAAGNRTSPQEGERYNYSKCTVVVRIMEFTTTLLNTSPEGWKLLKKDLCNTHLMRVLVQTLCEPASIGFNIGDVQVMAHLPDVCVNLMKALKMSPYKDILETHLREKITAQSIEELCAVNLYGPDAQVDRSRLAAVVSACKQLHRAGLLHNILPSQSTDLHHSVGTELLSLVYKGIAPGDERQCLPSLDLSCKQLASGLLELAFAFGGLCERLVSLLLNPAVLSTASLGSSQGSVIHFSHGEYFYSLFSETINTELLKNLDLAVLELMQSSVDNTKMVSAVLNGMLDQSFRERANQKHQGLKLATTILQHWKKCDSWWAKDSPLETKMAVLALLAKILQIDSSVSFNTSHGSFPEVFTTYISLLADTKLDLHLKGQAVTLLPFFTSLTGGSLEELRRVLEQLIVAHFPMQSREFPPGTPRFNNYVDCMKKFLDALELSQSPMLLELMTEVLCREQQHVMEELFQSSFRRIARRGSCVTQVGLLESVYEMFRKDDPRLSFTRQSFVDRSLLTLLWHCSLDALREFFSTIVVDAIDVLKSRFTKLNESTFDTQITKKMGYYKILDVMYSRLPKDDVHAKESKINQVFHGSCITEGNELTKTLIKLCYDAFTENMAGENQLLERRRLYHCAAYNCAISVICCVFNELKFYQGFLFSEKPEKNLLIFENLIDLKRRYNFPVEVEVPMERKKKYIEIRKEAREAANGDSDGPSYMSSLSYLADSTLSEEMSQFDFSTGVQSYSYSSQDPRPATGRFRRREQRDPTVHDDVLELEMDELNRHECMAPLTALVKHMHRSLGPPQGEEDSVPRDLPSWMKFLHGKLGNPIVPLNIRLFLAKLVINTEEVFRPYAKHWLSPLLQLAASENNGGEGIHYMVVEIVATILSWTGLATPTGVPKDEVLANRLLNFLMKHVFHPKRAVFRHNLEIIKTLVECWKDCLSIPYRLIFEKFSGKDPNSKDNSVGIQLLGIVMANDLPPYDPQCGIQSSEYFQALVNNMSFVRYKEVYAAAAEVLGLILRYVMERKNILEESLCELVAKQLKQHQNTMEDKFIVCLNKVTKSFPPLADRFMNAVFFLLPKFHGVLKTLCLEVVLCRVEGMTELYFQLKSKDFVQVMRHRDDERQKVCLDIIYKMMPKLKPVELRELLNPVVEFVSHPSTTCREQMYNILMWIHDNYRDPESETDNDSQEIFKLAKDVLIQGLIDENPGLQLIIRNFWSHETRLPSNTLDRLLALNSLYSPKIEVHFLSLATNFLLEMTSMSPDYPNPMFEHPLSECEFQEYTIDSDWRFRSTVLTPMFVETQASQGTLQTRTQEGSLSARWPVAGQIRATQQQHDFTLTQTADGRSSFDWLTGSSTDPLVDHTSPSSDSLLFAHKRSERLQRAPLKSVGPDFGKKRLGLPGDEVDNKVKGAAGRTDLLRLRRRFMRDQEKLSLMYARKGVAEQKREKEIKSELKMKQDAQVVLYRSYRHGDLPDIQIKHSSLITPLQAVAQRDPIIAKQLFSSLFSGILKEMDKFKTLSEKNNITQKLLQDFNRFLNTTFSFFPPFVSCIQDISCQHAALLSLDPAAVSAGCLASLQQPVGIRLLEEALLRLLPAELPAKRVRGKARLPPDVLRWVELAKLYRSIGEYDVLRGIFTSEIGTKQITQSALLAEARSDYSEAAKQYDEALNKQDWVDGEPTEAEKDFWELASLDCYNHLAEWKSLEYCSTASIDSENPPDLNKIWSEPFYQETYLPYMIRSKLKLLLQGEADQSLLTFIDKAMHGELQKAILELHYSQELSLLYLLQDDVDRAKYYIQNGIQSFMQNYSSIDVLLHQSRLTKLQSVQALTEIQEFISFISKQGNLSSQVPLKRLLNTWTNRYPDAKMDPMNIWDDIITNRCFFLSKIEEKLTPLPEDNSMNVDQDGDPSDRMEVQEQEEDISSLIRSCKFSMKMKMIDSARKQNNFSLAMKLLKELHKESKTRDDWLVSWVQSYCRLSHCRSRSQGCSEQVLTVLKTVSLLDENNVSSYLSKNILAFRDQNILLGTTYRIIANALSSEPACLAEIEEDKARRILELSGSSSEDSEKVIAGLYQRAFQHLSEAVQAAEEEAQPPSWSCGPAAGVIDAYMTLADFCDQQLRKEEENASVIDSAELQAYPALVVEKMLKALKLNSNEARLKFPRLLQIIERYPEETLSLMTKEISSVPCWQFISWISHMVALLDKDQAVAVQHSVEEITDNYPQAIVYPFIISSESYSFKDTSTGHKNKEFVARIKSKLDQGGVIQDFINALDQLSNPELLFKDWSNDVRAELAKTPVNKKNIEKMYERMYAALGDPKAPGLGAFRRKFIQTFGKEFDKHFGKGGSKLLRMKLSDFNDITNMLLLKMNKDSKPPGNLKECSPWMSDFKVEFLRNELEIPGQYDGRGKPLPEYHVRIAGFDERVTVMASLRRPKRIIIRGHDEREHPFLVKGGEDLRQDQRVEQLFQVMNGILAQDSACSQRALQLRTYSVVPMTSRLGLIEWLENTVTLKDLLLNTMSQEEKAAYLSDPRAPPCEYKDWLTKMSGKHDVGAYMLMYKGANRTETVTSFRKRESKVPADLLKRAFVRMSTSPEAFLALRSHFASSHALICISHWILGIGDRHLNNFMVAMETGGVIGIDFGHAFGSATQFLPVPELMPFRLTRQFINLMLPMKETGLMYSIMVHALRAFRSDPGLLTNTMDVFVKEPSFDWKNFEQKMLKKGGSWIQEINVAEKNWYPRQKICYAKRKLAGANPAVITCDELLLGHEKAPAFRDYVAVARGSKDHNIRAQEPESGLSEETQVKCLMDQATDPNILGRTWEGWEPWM

Target: T1, Flag-TRIM24 wild type (tripartite motif containing 24) (human) (UniProt O15164)
T1 sequence: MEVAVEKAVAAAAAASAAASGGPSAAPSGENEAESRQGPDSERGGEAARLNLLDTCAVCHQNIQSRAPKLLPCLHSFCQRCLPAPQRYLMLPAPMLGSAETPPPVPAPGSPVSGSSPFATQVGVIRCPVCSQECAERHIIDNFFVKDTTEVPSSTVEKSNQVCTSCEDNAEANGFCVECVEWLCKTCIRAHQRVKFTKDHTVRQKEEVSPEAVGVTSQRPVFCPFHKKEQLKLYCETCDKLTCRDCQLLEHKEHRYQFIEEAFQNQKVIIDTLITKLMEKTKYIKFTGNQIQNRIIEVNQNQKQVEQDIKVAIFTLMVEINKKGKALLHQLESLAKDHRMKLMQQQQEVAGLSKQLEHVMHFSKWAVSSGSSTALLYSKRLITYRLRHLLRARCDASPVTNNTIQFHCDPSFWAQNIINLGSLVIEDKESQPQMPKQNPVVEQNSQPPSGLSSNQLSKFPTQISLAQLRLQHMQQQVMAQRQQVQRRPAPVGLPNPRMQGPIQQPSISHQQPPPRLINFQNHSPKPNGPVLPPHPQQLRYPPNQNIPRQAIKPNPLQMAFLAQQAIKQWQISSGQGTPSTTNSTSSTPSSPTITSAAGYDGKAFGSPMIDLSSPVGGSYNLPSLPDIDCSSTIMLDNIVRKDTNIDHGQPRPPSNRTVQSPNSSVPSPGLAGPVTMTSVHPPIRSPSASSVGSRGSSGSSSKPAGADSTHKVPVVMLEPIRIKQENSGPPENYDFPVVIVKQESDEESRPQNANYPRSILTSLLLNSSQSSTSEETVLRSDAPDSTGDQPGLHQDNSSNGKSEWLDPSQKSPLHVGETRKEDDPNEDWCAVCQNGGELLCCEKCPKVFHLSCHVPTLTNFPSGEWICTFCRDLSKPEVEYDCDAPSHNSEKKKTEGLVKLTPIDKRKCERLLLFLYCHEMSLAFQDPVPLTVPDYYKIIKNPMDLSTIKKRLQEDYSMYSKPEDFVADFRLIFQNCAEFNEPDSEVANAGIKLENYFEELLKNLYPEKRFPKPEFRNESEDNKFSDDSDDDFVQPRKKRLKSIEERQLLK
Test: affinity purification with mass spectrometry; TRIM24 complex purified from NHA/HRas^V12/TRIM24 or control cells (anti-FLAG antibody pull-down by the results; TRIM24 antibody by the methods), SDS-PAGE with silver staining, LC-MS/MS

Substance	binding
Ku70 (endogenous) (from UniProt P12956 1-609)	binds
Ku80 (endogenous) (from UniProt P13010 1-732)	binds
DNA-dependent protein kinase catalytic subunit (DNA-PKcs) (from UniProt P78527 1-4128) (enzyme)	binds
